Literature values, collected in patent publication US11766428B2 (TAVANTA THERAPEUTICS HUNGARY INCORPORATED, priority 2018, dated 2023).
At least one compound was matched to its structure with a doubt left.

Test system: patients with hypertension

CCOC(=O)C1=C(COCCN)NC(C)=C(C(=O)OC)C1c1ccccc1Cl (centres unmarked) [amlodipine]
greater blood pressure response, moderate versus mild hypertension (diastolic 105-114 mmHg vs 90-104 mmHg): ~50%
change in blood pressures (normotensive subjects): +1/−2 mmHg
